Among the data in publication PMC7665192, “A natriuretic peptide from Arabidopsis thaliana (AtPNP-A) can modulate catalase 2 activity” (Scientific Reports, 2020) are binding values, retold here.

No constants are given. Whether binding was seen depends on the method and setting. In cells and extracts the contact can be indirect. Some binding calls cover weakened binding; strength is not graded here.

For this assay, the target named is T1, NeYFP-CAT2 (A. thaliana) (UniProt P25819).
T1 sequence: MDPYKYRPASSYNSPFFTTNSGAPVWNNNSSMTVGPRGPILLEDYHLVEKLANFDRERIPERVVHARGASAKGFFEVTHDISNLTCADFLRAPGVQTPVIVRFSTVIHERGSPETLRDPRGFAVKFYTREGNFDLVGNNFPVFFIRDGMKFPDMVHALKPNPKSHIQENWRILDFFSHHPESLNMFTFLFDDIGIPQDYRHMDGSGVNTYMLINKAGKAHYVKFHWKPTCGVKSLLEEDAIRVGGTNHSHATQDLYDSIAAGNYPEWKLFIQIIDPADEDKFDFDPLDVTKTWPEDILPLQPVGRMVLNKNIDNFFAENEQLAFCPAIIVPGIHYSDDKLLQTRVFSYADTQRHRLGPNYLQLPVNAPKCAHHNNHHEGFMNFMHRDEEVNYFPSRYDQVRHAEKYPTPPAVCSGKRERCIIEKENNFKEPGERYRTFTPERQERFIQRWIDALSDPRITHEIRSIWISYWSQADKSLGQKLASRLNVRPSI
In words: split reporter; BiFC with NeYFP and CeYFP fusions driven by the 35S promoter, tobacco leaves infiltrated with Agrobacterium, protoplasts imaged after 3 days; BiFC/red fluorescence in chloroplasts.

B1: CeYFP-AtPNP-A (protein, UniProt Q9ZV52 26-130)
chain: AQGKAVYYDPPYTRSACYGTQRETLVVGVKNNLWQNGRACGRRYRVRCIGATYNFDRACTGRTVDVKVVDFCREPCNGDLNLSRDAFRVIANTDAGNIRVVYTPI
For B1, the binding entry is “binds”.
